The full ranking holds about 3,200 compounds; the median of “TSA(with NAD+) / Primary screening (TSA) / delta Tm (K)” is about -0.04, and the highest 2% start at about 0.37. Some of the results follow.

The chains behind the UniProt entries cited, without tags or fusion partners. Residues count along the entry.
UniProt Q96EB6, 2-747 limits assumed: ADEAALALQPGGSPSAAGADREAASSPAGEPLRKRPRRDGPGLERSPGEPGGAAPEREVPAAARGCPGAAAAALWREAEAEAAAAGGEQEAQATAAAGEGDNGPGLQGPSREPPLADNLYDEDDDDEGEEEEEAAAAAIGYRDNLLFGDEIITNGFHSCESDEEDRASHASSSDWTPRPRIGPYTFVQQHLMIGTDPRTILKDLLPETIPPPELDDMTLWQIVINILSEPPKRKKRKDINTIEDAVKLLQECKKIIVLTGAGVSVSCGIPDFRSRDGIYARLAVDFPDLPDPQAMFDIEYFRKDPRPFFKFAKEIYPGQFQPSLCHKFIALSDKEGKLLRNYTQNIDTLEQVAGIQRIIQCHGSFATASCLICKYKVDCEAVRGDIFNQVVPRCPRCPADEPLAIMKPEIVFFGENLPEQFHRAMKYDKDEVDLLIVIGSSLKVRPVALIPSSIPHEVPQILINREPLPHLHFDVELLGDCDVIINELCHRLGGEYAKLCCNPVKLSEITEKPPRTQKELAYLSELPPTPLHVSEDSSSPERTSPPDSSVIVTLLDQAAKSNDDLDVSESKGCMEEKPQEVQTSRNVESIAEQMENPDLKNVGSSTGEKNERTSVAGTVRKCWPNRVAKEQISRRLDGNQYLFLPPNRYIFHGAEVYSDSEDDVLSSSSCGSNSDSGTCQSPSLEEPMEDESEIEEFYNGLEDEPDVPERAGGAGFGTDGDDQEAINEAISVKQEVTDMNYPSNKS

The source of these data is PMC6925144, “A prospective compound screening contest identified broader inhibitors for Sirtuin 1” (Scientific Reports, 2019).

In the test the target is NAD-dependent deacetylase Sirtuin 1 (human, UniProt Q96EB6). Kind of test: primary screen, delta tm. Also on record: single well (n = 1, as 'the same TSA'). The note with it: 10 µM.
As for `CCc1c(C)c(C#N)c2nc3ccccc3n2c1S`, the “TSA(with NAD+) / Primary screening (TSA) / delta Tm (K)” value was 0.46 K.
With `COC[C@@H](C)N`, the “TSA(with NAD+) / Primary screening (TSA) / delta Tm (K)” value worked out at 0.05 K.
As for `NC(=O)c1cnc(N2CCC(N3CCNC3=O)CC2)c(Cl)c1`, the “TSA(with NAD+) / Primary screening (TSA) / delta Tm (K)” value is -0.01 K.
On to `CCc1ccc(-c2noc(COc3ccc(-c4nnco4)cc3)n2)cc1`, for which the “TSA(with NAD+) / Primary screening (TSA) / delta Tm (K)” value is given as -0.01 K.
Consider `CNS(=O)(=O)c1cc(N)ccc1C`, for which the “TSA(with NAD+) / Primary screening (TSA) / delta Tm (K)” value is reported as -0.06 K.
With `O=C(CN1CCCCCC1=O)N1CCN(c2cnccn2)CC1`, the “TSA(with NAD+) / Primary screening (TSA) / delta Tm (K)” value was -0.04 K.
For `CCCCn1c(=O)c2c(nc3n(CCCC)c(C)cn23)n(C)c1=O`, the “TSA(with NAD+) / Primary screening (TSA) / delta Tm (K)” value was -0.06 K.
The value for `CN(c1ccccc1)S(=O)(=O)c1cccc(NC(=O)c2ccc(C(N)=O)cc2)c1` was -0.01 K; that for `CC(C)(C)c1ccc(OCCCC(=O)Nc2cccc(S(=O)(=O)N3CCOCC3)c2)cc1` was 0.02 K.
In the case of `c1ccc2c(c1)NCC1CCCN21` (centres unmarked), the “TSA(with NAD+) / Primary screening (TSA) / delta Tm (K)” value is given as -0.04 K.
In the case of `CCc1cc2c(N3CCC(C(=O)Nc4cc(C)on4)CC3)ncnc2s1`, the “TSA(with NAD+) / Primary screening (TSA) / delta Tm (K)” value turned out to be 0.05 K.
With `CN(Cc1nc2ccccc2c(=O)[nH]1)C(=O)c1ccc(COc2ccccc2C#N)o1` the figure was -0.01 K; with `c1ccc(-c2cn(-c3nc(-c4cccnc4)nc4ccccc34)cn2)cc1`, 0.16 K; with `O=C(NC1CCOc2ccccc21)c1ccc2c(c1)NC(=O)C1CCCN21` (centres unmarked), -0.05 K.
`Cn1ncc2c(N3CCN(C(=O)C4CC(=O)N(C5CCCC5)C4)CC3)ncnc21` (centres unmarked): the “TSA(with NAD+) / Primary screening (TSA) / delta Tm (K)” value is recorded as -0.11 K.
As for `Cc1ccc(C(=O)N2CC3(CCCC3)c3ccccc32)c(=O)[nH]1`, the “TSA(with NAD+) / Primary screening (TSA) / delta Tm (K)” value is given as -0.22 K.
`Cc1cc(N2CCN(c3ncccc3C(N)=O)CC2)nc(C2CC2)n1`: the “TSA(with NAD+) / Primary screening (TSA) / delta Tm (K)” value was 0.05 K.
For the molecule `COC(=O)C[C@@H](C)OC(=O)c1ccc(F)cc1F`, the “TSA(with NAD+) / Primary screening (TSA) / delta Tm (K)” value was -0.05 K.
Take `O=c1oc2ccc3ccccc3c2cc1-c1cn(-c2ccc(Br)cc2)c(S)n1`: the “TSA(with NAD+) / Primary screening (TSA) / delta Tm (K)” value is -0.28 K.
With `N#CCCn1cc(/C=C/C(=O)NC2CC2c2cccc(F)c2)c2ccccc21` (centres unmarked) the figure was -0.03 K; with `FC(F)(F)c1nnc2ccc(NCC3CCOC3)nn12` (centres unmarked), -0.16 K; with `O=C(NCc1cccc(C(=O)NCc2ccco2)c1)Nc1nnc(C2CC2)s1`, -0.23 K.
Regarding `CCC(N)c1nnn[nH]1` (centres unmarked), the “TSA(with NAD+) / Primary screening (TSA) / delta Tm (K)” value amounted to 0.02 K.
Consider `CN(c1ccccc1)S(=O)(=O)c1cccc(NC(=O)CCCc2c[nH]c3ccccc23)c1`, for which the “TSA(with NAD+) / Primary screening (TSA) / delta Tm (K)” value is on record as 0.39 K.
Take `Cc1nn(-c2cccc(C(F)(F)F)c2)c2sc(C(=O)NC3CC3)cc12`: the “TSA(with NAD+) / Primary screening (TSA) / delta Tm (K)” value is given as -0.01 K.
On to `CC1CN(c2ncnc3ccsc23)CCO1` (centres unmarked), for which the “TSA(with NAD+) / Primary screening (TSA) / delta Tm (K)” value was -0.26 K.
As to `C[C@H](CCO)Nc1ccc(Br)cc1C#N`, the “TSA(with NAD+) / Primary screening (TSA) / delta Tm (K)” value is on record as -0.13 K.
In the case of `O=C(c1n[nH]c(=O)c2ccccc12)N1CCCC2(CCCCCC2)C1`, the “TSA(with NAD+) / Primary screening (TSA) / delta Tm (K)” value is -0.28 K.
With `Cc1csc2c(-n3cc([N+](=O)[O-])cn3)ncnc12` the figure was -0.26 K.
As for `Cc1ccc2[nH]c(-c3cccs3)c(CCC(=O)O)c2c1`, the “TSA(with NAD+) / Primary screening (TSA) / delta Tm (K)” value was -0.19 K.
As to `COC(=O)CC(C)C(=O)NCc1c(C)nc2c(c1C)c(=O)[nH]n2C` (centres unmarked), the “TSA(with NAD+) / Primary screening (TSA) / delta Tm (K)” value is given as -0.02 K.
With `COc1ncccc1CNC(=O)CN(C)c1ncnc2nc[nH]c12`, the “TSA(with NAD+) / Primary screening (TSA) / delta Tm (K)” value was -0.03 K.
Turning to `COc1cc(C)ccc1OCC(=O)Nc1nc2c(s1)CN(C)CC2`, the “TSA(with NAD+) / Primary screening (TSA) / delta Tm (K)” value is reported as -0.06 K.
With `O=C(O)c1cnc2[nH]c3ccccc3n2c1=O` the figure was -0.08 K; with `CC(C)(CNc1cccc(F)c1[N+](=O)[O-])C(N)=O`, -0.02 K.
On to `NC(=O)c1ccc(-c2nnn(CC(=O)Nc3ccccc3N3CCCC3)n2)cc1`, for which the “TSA(with NAD+) / Primary screening (TSA) / delta Tm (K)” value is listed as -0.03 K.
As to `CC(C)c1ccc(-n2cc(O)c(C(=O)N(C)CC(=O)O)n2)cc1`, the “TSA(with NAD+) / Primary screening (TSA) / delta Tm (K)” value is -0.11 K.
Regarding `NC(=O)c1csc(C(=O)Oc2cccc(-n3cccn3)c2)c1`, the “TSA(with NAD+) / Primary screening (TSA) / delta Tm (K)” value is given as -0.03 K.
Consider `O=C(CSc1nnc(-c2ccccc2)o1)N(Cc1ccccc1)c1nc2c(s1)CCCC2`, for which the “TSA(with NAD+) / Primary screening (TSA) / delta Tm (K)” value is on record as 0.08 K.
As for `Cc1csc(NC(=O)c2cc(S(=O)(=O)Nc3ccccc3C)ccc2C)n1`, the “TSA(with NAD+) / Primary screening (TSA) / delta Tm (K)” value was -0.01 K.
Consider `Cc1noc(CN2CCN(c3ncnc4c3oc3ccccc34)CC2)n1`, for which the “TSA(with NAD+) / Primary screening (TSA) / delta Tm (K)” value was -0.13 K.
In the case of `Cc1cc(C(C)NCCCO)ccc1Br` (centres unmarked), the “TSA(with NAD+) / Primary screening (TSA) / delta Tm (K)” value was -0.03 K.
As for `CC(=O)NC12CC3CC(C1)CC(C(=O)NNC(=O)COc1ccccc1Cc1ccccc1)(C3)C2`, the “TSA(with NAD+) / Primary screening (TSA) / delta Tm (K)” value is reported as -0.28 K.
In the case of `Cc1cc(C(=O)O)ncc1C#N`, the “TSA(with NAD+) / Primary screening (TSA) / delta Tm (K)” value is given as 0.05 K.
With `CS(=O)(=O)c1ccc(C(=O)N(Cc2ccccc2)c2ccccc2)cc1` the figure was -0.05 K; with `NCCCCCCN`, 0.09 K; with `Cc1cc(C(=O)CSc2nncn2-c2ccccc2)c(C)n1C1CC1`, -0.04 K.
Consider `CCCOc1ccc(C2C(C(=O)c3cccs3)=C(O)C(=O)N2CCCN2CCOCC2)cc1` (centres unmarked), for which the “TSA(with NAD+) / Primary screening (TSA) / delta Tm (K)” value is listed as 0.01 K.
The value for `Cc1ccc2nc(C)c(C(=O)Nc3ccccc3NC(=O)N3CCCC3)cc2c1` was -0.22 K.
As to `CC(C)C(=O)N1CCCCC1C(=O)NCC1CCCN(Cc2cccs2)C1` (centres unmarked), the “TSA(with NAD+) / Primary screening (TSA) / delta Tm (K)” value is reported as -0.01 K.
The value for `O=C1NC(=O)c2cc([N+](=O)[O-])ccc21` was -0.01 K.
As for `COc1ccc(NC(=O)c2cccc(S(=O)(=O)N(C)c3ccc(OC)cc3)c2)cc1`, the “TSA(with NAD+) / Primary screening (TSA) / delta Tm (K)” value is recorded as -0.02 K.
With `COc1cc(CN(C)C(=O)c2ccc(N3CCCC3=O)cc2)ccc1OCc1ccccc1` the figure was -0.11 K.
The value for `CN(c1cccc(Cl)c1)S(=O)(=O)c1cccc(C(=O)OCc2cc(=O)oc3ccc4ccccc4c23)c1` was 0.06 K.
For the molecule `O=C(CCn1[nH]c(=O)ccc1=O)Nc1nc(SCc2ccccc2)ns1`, the “TSA(with NAD+) / Primary screening (TSA) / delta Tm (K)” value is -0.06 K.
Regarding `O=C(CCCn1c(=O)oc2ccccc21)Nc1cccc(S(=O)(=O)NCc2ccco2)c1`, the “TSA(with NAD+) / Primary screening (TSA) / delta Tm (K)” value was -0.11 K.
Take `COc1ccc(N(C)S(=O)(=O)c2cccc(C(=O)OCc3ccc(C#N)cc3)c2)cc1`: the “TSA(with NAD+) / Primary screening (TSA) / delta Tm (K)” value is -0.03 K.
With `C=C(C)CSc1nnc(S)s1` the figure was -0.09 K.
The value for `O=C1Nc2c(Cl)cc(Cl)cc2C1=O` was -0.61 K.
For `c1nc(N2CCCSCC2)c2sccc2n1`, the “TSA(with NAD+) / Primary screening (TSA) / delta Tm (K)” value worked out at 0.09 K.
Take `CN(C)C(=O)Cc1ccc(/N=C/c2cc3ccccc3nc2O)cc1`: the “TSA(with NAD+) / Primary screening (TSA) / delta Tm (K)” value is given as -0.12 K.
As for `CCNC(=O)NCc1ccc(NC(=O)Cc2cn(CC)c3ccccc23)cc1`, the “TSA(with NAD+) / Primary screening (TSA) / delta Tm (K)” value turned out to be 0.09 K.
